Data from EP4272752A1, “PASIREOTIDE OR A PHARMACEUTICAL ACCEPTABLE SALT OR SOLVATE THEREOF, FOR USE IN PREVENTION OR DELAY OF BREAST CANCER IN A FEMALE MAMMAL” (Consejo Superior De Investigaciones Científicas (CSIC), priority 2022, dated 2023).
“Also recorded” adds a separate entry of the source. At least one peptide structure holds a part that was inferred or is arguable (an end, a ring closure or a residue). *1 amine or outer side, *2 acyl side, *3 side chain or, on linkers, in order; H or OH if unused. Where a SMILES comes first, the peptide text is derived from it. Side-chain parts run from the residue outwards. [ ]: non-standard residue; d: D form. The star is where a group is joined. Ethylenediamine = C(CN[*:2])N[*:1]; Hyp = O=C(O)[C@@H]1C[C@@H](O)CN1; Phg = N[C@H](C(=O)O)c1ccccc1; CO = O=C([*:1])[*:2]; Bn = c1ccc(C*)cc1

Legend:
Brca1/P53-deficient mice = experiment: Flow cytometry of mammary epithelial subpopulations; format: in vivo; conditions: nulliparous
Brca1/P53 deficient mice [1] = experiment: Ki67 immunohistochemistry, ductal epithelial proliferation of the mammary gland; format: in vivo; conditions: for epithelial proliferation: treated vs untreated, P < 0.0001
MCF10A cells [2] = experiment: Propidium iodide cell cycle assay, flow cytometry; format: cell-based, human; conditions: 20 µM, 48 hours
HC11 cells = experiment: Cell viability (MTT assay, phase contrast microscopy); format: cell-based, mouse; conditions: 48 hours
AU565 cells [3] = experiment: as above; format: cell-based, human; conditions: 20 µM, 48 hours
AU565 cells [4] = experiment: Propidium iodide cell cycle assay, flow cytometry; format: cell-based, human; conditions: 20 µM, 48 hours
Brca1/P53 deficient mice [5] = experiment: Histopathological evaluation of the breasts; format: in vivo; conditions: cross-sectional cohort
[6] = test system: Brca1/P53 deficient multiparous mice; experiment: Chemoprevention and tumor evolution in multiparous Brca1/P53 deficient mice; format: in vivo
HCC1937 cells = experiment: Cell viability (MTT assay, phase contrast microscopy); format: cell-based, human; conditions: 20 µM, 48 hours of exposure
recombined allele of P53 = experiment: Quantification of the recombined P53 allele in the non-tumorous breast; format: in vivo, mice; conditions: treated vs untreated
[7] = test system: mice overexpressing ErbB2/Neu protooncogene; experiment: Chemoprevention and tumor evolution in nulliparous MMTV-ErbB2/Neu mice; format: in vivo
MCF10A cells [8] = experiment: Cell viability (MTT assay, phase contrast microscopy); format: cell-based, human; conditions: 20 µM, 48 hours
[9] = for the total number of recombinant epithelial cells (RFP+)
[10] = treated vs untreated multiparous

With `NCCCC[C@@H]1NC(=O)[C@@H](Cc2c[nH]c3ccccc23)NC(=O)[C@H](c2ccccc2)NC(=O)[C@@H]2C[C@@H](OC(=O)NCCN)CN2C(=O)[C@H](Cc2ccccc2)NC(=O)[C@H](Cc2ccc(OCc3ccccc3)cc2)NC1=O` [pasireotide, Pasireotide] (cyclo([Hyp]([CO-Ethylenediamine])[Phg][dW]KY(Bn)F)) the alveolar population (Brca1/P53-deficient mice; concerning total RFP+ luminal cells, treated vs untreated) was “subsequent increase”, the “proportion of RFP+ Lin- recombinant cells” value (Brca1/P53-deficient mice; five months, treated vs untreated) was “no significant differences” and the “decrease in ductal cells, progenitor and mature subpopulations” value (Brca1/P53-deficient mice; for the total epithelial cells) was “affects the two subpopulations equally”. For the same compound, the alveolar luminal cells (Brca1/P53-deficient mice; [9]) was “no significant differences”, the luminal ductal cells (Brca1/P53-deficient mice; [9]) was “decrease in luminal ductal cells was maintained” and the “ductal progenitors (RFP-)” value (Brca1/P53-deficient mice; non-recombinant cells, P = 0.0010) was “decrease”. The “Sca1+ ductal population (RFP-)” value (Brca1/P53-deficient mice; non-recombinant cells, P = 0.0111) was “statistically significant decrease”, the “mature ductal cells (RFP-)” value (Brca1/P53-deficient mice; non-recombinant cells, P = 0.0343) was “decrease” and the “alveolar Sca1- cells (RFP-)” value (Brca1/P53-deficient mice; non-recombinant cells, P = 0.0443) was “slight but significant increase”. For the same compound, the “proportion of RFP- luminal cells” value (Brca1/P53-deficient mice; non-recombinant cells, treated vs untreated, P = 0.1384) was “no differences were observed”, the “proportion of RFP- basal cells” value (Brca1/P53-deficient mice; non-recombinant cells, treated vs untreated, P = 0.3408) was “no differences were observed” and the “proportion of RFP+ luminal cells” value (Brca1/P53-deficient mice; with respect to total Lin- cells, treated vs untreated, P = 0.2660) was “No differences”. For the same compound, the “proportion of RFP+ basal cells” value (Brca1/P53-deficient mice; with respect to total Lin- cells, treated vs untreated, P = 1,000) was “no differences”, the “ductal Sca1+ subpopulation (RFP+)” value (Brca1/P53-deficient mice; with respect to total recombinant EpCAM+ cells, P = 0.0111) was “statistically significant decrease” and the “alveolar Sca1- subpopulation (RFP+)” value (Brca1/P53-deficient mice; with respect to total recombinant EpCAM+ cells, P = 0.5966) was “No differences”. For the same compound, the “mature subpopulations, CD61- (RFP+)” value (Brca1/P53-deficient mice; with respect to total recombinant luminal cells, P = 0.0059) was “statistically significant reduction”, the “progenitor subpopulations, CD61+ (RFP+)” value (Brca1/P53-deficient mice; with respect to total recombinant luminal cells, P= 0.0022) was “statistically significant reduction” and the “proportions of luminal or basal subpopulations” value (Brca1/P53-deficient mice; within RFP+ EpCAM+ cells, treated vs untreated) was “No changes”. For the same compound, the “percentage of mature ductal and ductal precursors (CD61-/CD61+)” value (Brca1/P53-deficient mice; within recombinant ductal cells, treated vs untreated) was “No significant changes”, the epithelial proliferation (Brca1/P53 deficient mice [1]; multiparous with high tumor latency) was “this phenomenon also occurred” and the epithelial proliferation (Brca1/P53 deficient mice [1]; multiparous with low tumor latency) was “this phenomenon also occurred”. The epithelial proliferation (Brca1/P53 deficient mice [1]; multiparous, all mice) was “less epithelial proliferation”, the epithelial proliferation (Brca1/P53 deficient mice [1]; nulliparous with high tumor latency) was “lower proliferative index” and the epithelial proliferation (Brca1/P53 deficient mice [1]; nulliparous with low tumor latency) was “lower proliferative index”. For the same compound, the epithelial proliferation (Brca1/P53 deficient mice [1]; nulliparous, all mice) was “highly statistically significant decrease”, the Ki67 positive cells (Brca1/P53 deficient mice [1]; treated multiparous, cross-sectional cohort, P < 0.0001 vs untreated (12.33%)) was 1.50% and the “Ki67 positive cells (proliferative index)” value (Brca1/P53 deficient mice [1]; treated nulliparous, cross-sectional cohort, P < 0.0001 vs untreated (22.64%)) was 2.43%. The “number of cells in S phase” value (MCF10A cells [2]) was “reduction”, the “proportion of cells arrested in G0 phase/G1” value (MCF10A cells [2]) was “statistically significant increase” and the cell growth (HC11 cells; phase contrast microscopy, 20 µM) was “much slower growth”. For the same compound, the reduction in viability (HC11 cells; post-differentiated HC11 cells, 20 µM) was 50%, the reduction in viability (HC11 cells; undifferentiated HC11, 20 µM, vs untreated cells) was 66.5% and the decrease in viability (AU565 cells [3]) was 52.3%. For the same compound, the G2/M phase (AU565 cells [4]) was “no differences”, the “number of cells in S phase” value (AU565 cells [4]) was “reduction” and the “proportion of cells arrested in G0/G1 phase” value (AU565 cells [4]) was “statistically significant increase”. The “histopathology of the breast” value (Brca1/P53 deficient mice [5]; treated multiparous mice) was “very small number of ducts”, the “histopathology of the breast” value (Brca1/P53 deficient mice [5]; treated nulliparous females) was “sparse, isolated ducts with normal lining cells” and the incidence of metastases ([6]; treated multiparous, P=0.0375 vs untreated) was “no metastases were observed”. The tumor incidence ([6]; treated multiparous, P = 0.001 vs untreated multiparous (19 mice of 32)) was 7 mice of 35, the tumors well differentiated ([6]; treated multiparous, P = 0.0170 vs untreated) was 100% and the “tumors diagnosed as infiltrating ductal carcinoma” value ([6]; treated multiparous, P = 0.2688 vs untreated) was 100%. For the same compound, the “duration of the disease” value [6, 10] was “no differences”, the overall survival [6, 10] was “no differences” and the tumor multiplicity [6, 10] was “no differences”. The multiplicity of metastases ([6]; treated vs untreated multiparous, P=0.0375) was “differences were observed”, the tumor growth rate ([6]; treated vs untreated multiparous, p= 0.0209) was “lower tumor growth rate” and the reduction in viability (HCC1937 cells) was 53%. For the same compound, the “proportion of recombined allele of P53” value (recombined allele of P53; multiparous Brca1/P53 deficient mice, P = 0.0226) was “lower proportion”, the “fraction of P53 allele recombined in the breast” value (recombined allele of P53; nulliparous Brca1/P53 deficient mice, P = 0.7633) was “no statistically significant differences” and the histopathology of tumors ([7]; 10 cases per group, treated vs not treated) was “No notable histopathological differences”. For the same compound, the incidence of metastases ([7]; lung metastases, treated vs untreated, P=0.0089, P = 0.0113) was “statistically significant decrease”, the tumor incidence ([7]; share of mice that developed tumor despite treatment) was 100% and the tumor multiplicity ([7]; treated group, 20 of 32 females generated two or more tumors) was 62.5%. The tumor incidence ([7]; treated vs untreated, Fisher's test) was “No differences”, the number of tumors ([7]; treated vs untreated, P = 0.0007) was “fewer mammary tumors on average; also recorded: significantly develop fewer tumors” and the survival ([7]; treated vs untreated, P = 0.0294) was “significantly increased survival; also recorded: significant differences”. For the same compound, the tumor multiplicity ([7]; treated vs untreated, P = 0.0385) was “statistically significant differences; also recorded: differences were observed”, the “duration of the disease” value ([7]; treated vs untreated, P = 0.1337) was “No statistically significant differences” and the multiplicity of metastases ([7]; treated vs untreated, P = 0.8042) was “no change; also recorded: no differences”. The tumor growth rate ([7]; treated vs untreated, P = 0.9967) was “did not change; also recorded: No differences”, the tumor latency ([7]; treated vs untreated, pasireotide-LAR 40 mg/kg s.c. every 28 days, Log-Rank P = 0.0069) was “statistically significant increase” and the reduction in viability (MCF10A cells [8]) was 70.4%. For the same compound, the cell growth (MCF10A cells [8]; phase contrast microscopy) was “much slower growth”.
